Measurements reported in PubChem BioAssay AID1508597 (Cure First, 2020)
Test: 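Survival screen with siRNA in ovarian cancer cells derived from patients, with or without rucaparib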 (primary screen). Cells: human ovarian carcinoma lines grown from tumours: OCI-P5x (papillary serous) and OCI-C5x (clear cell). Knock-down reagent: siRNA pool against human genes, 1.25 pmol siRNA per well. Timing: 72 h or 96 h, depending on the cell culture. Challenge: rucaparib 20 µM (about IC30) or vehicle, present until read-out. Measurement: 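ATP luminescence measured at 72 or 96 h according to the culture, then normalised and expressed as percent viability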. Direction: viability, normalised: higher = more viable cells remaining. Rule for the call: 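Active when normalised viability falls below 80 percent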. Meaning of the calls: active = viability under 80%; inactive = viability 80% or more.
This is one part, drawn at random, of about 2,100 reagents tested. 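Calls flag viability under 80% in either arm, not effects specific to rucaparib; the reference for percent is not stated.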 Not given: the 100% reference.

gene knocked down,rucaparib or vehicle,cell line,technical replicate,"viability, normalised (%)",call
PFKFB4,Rucaparib,OCI-C5x (clear cell),1,54.1,active
PFKFB4,Rucaparib,OCI-C5x (clear cell),2,62.5,active
PFKFB4,Rucaparib,OCI-C5x (clear cell),3,57.9,active
PFKFB4,Rucaparib,OCI-P5x (serous),1,90.3,inactive
PFKFB4,Rucaparib,OCI-P5x (serous),2,75.7,active
PFKFB4,Rucaparib,OCI-P5x (serous),3,80.6,inactive
PFKFB4,Vehicle,OCI-C5x (clear cell),1,57.4,active
PFKFB4,Vehicle,OCI-C5x (clear cell),2,69.2,active
PFKFB4,Vehicle,OCI-C5x (clear cell),3,48.1,active
PFKFB4,Vehicle,OCI-P5x (serous),1,84,inactive
PFKFB4,Vehicle,OCI-P5x (serous),2,82.3,inactive
PFKFB4,Vehicle,OCI-P5x (serous),3,96.3,inactive
ETNK1,Rucaparib,OCI-C5x (clear cell),1,86.6,inactive
ETNK1,Rucaparib,OCI-C5x (clear cell),2,46.5,active
ETNK1,Rucaparib,OCI-C5x (clear cell),3,63,active
ETNK1,Rucaparib,OCI-P5x (serous),1,80.7,inactive
ETNK1,Rucaparib,OCI-P5x (serous),2,72.9,active
ETNK1,Rucaparib,OCI-P5x (serous),3,74.2,active
ETNK1,Vehicle,OCI-C5x (clear cell),1,56.2,active
ETNK1,Vehicle,OCI-C5x (clear cell),2,76,active
ETNK1,Vehicle,OCI-C5x (clear cell),3,70,active
ETNK1,Vehicle,OCI-P5x (serous),1,91.5,inactive
ETNK1,Vehicle,OCI-P5x (serous),2,78.7,active
ETNK1,Vehicle,OCI-P5x (serous),3,80,inactive

3 successive records from above, for reference:
gene knocked down,rucaparib or vehicle,cell line,technical replicate,"viability, normalised (%)",call
PFKFB4,Vehicle,OCI-P5x (serous),3,96.3,inactive
ETNK1,Rucaparib,OCI-C5x (clear cell),1,86.6,inactive
ETNK1,Rucaparib,OCI-C5x (clear cell),2,46.5,active

Next entries follow:
gene knocked down,rucaparib or vehicle,cell line,technical replicate,"viability, normalised (%)",call
HIRA,Rucaparib,OCI-C5x (clear cell),1,65.2,active
HIRA,Rucaparib,OCI-C5x (clear cell),2,56.8,active
HIRA,Rucaparib,OCI-C5x (clear cell),3,55.7,active
HIRA,Rucaparib,OCI-P5x (serous),1,63.4,active
HIRA,Rucaparib,OCI-P5x (serous),2,58.4,active
HIRA,Rucaparib,OCI-P5x (serous),3,65.9,active
HIRA,Vehicle,OCI-C5x (clear cell),1,61.8,active
HIRA,Vehicle,OCI-C5x (clear cell),2,81.9,inactive
HIRA,Vehicle,OCI-C5x (clear cell),3,89.4,inactive
HIRA,Vehicle,OCI-P5x (serous),1,87.2,inactive
HIRA,Vehicle,OCI-P5x (serous),2,89.3,inactive
HIRA,Vehicle,OCI-P5x (serous),3,72.3,active
STK33,Rucaparib,OCI-C5x (clear cell),1,61.1,active
STK33,Rucaparib,OCI-C5x (clear cell),2,65.3,active
STK33,Rucaparib,OCI-C5x (clear cell),3,54,active
STK33,Rucaparib,OCI-P5x (serous),1,85.3,inactive
STK33,Rucaparib,OCI-P5x (serous),2,72.8,active
STK33,Rucaparib,OCI-P5x (serous),3,71,active
STK33,Vehicle,OCI-C5x (clear cell),1,53.8,active
STK33,Vehicle,OCI-C5x (clear cell),2,67.4,active
STK33,Vehicle,OCI-C5x (clear cell),3,63.1,active
STK33,Vehicle,OCI-P5x (serous),1,75.3,active
STK33,Vehicle,OCI-P5x (serous),2,71.9,active
STK33,Vehicle,OCI-P5x (serous),3,76.9,active
CLDN8,Rucaparib,OCI-C5x (clear cell),1,59.1,active
CLDN8,Rucaparib,OCI-C5x (clear cell),2,44.1,active
CLDN8,Rucaparib,OCI-C5x (clear cell),3,52.6,active
CLDN8,Rucaparib,OCI-P5x (serous),1,57.3,active
CLDN8,Rucaparib,OCI-P5x (serous),2,65.9,active
CLDN8,Rucaparib,OCI-P5x (serous),3,61.9,active
CLDN8,Vehicle,OCI-C5x (clear cell),1,34.6,active
CLDN8,Vehicle,OCI-C5x (clear cell),2,39.8,active
CLDN8,Vehicle,OCI-C5x (clear cell),3,38.9,active
CLDN8,Vehicle,OCI-P5x (serous),1,59.3,active
CLDN8,Vehicle,OCI-P5x (serous),2,66.1,active
CLDN8,Vehicle,OCI-P5x (serous),3,112,inactive
